From PubChem BioAssay AID1508600 (Functional Genomics Laboratory (NCATS/FGL), 2020)
Screen size: about 53,000 sequences; about 3,700 (7%) were called active.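 Rule for the calls: active = gene knockdowns whose robust z-score for IL-1 alpha signal is at least 2 or at most -2, so actives lie on both sides; inactive = the rest.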 This is one part of the list.

assay: Components of the Cytosolic LPS Sensing Pathway: Gene Identification via Genome-wide siRNA Screen; details: RAW264.7 macrophages, IL-1a HTRF, actives lie on both sides, screened at 100 nM (by protocol), cells primed 5 h with Pam3CSK4 first;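 note: robust z of the log signal after scaling to non-targeting control siRNA wells of the plate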
Method in brief: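 IL-1a HTRF of supernatants after 24 hour LipidA transfection of Pam3CSK4-primed (5 hours) RAW264.7 cells, 48h post-siRNA transfection (100 nM). Scores: percent of plate negative-control median, then log-based robust z-score.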

| Sequence | z-score |
| --- | --- |
| GGUGGGAUCGAGGAACAAATT against Ext2 | inactive: -1.33 |
| GGGUUGGAUAAGGAGAAAATT against Polk | inactive: -0.632 |
| GCAGUUGAGACAAUAUGUCTT against Trim31 | inactive: -1.8 |
| GGAAGAAAGAUCUAUGAACTT against Dph5 | inactive: -0.648 |
| GGUGUAUUCAGAGAAGAAGTT against Tmem184a | inactive: 0.598 |
| GCAGGUCAAUGGACUUAUGTT against Tal1 | inactive: 0.893 |
| CCAACUCUGUUACAUUAUGTT against Cenpi | inactive: 1.06 |
| GCUAAGAACGGAUUUCAAGTT against Cnih3 | inactive: 0.491 |
| GGUCCACAGAUUCUUCUAATT against Zfa-ps | inactive: -0.761 |
| GCAUAUUAUACCAAGGCCUTT against Tex11 | inactive: -0.933 |
| GGUCUCUCUGGAAAUAUAATT against Gria2 | inactive: -0.947 |
| CCUAACAUAGUAUAGCCUUTT against Zfp868 | inactive: -0.0695 |
| GGAGCUCAUAUACACCUGCTT against Tdp1 | inactive: 0.524 |
| CGGCUUGCUACUUUGGAACTT against Gda | active: 2.55 |
| CACGGUACAGUACGAUUGATT against Rcan2 | inactive: 0.143 |
| CCAUUCAUACCAUACCUGUTT against Tmem50a | inactive: -0.521 |
| GGUGAUCAAACUUUACUCATT against Gfra2 | inactive: -1.03 |
| GGACCAUAUUCCAGACCAGTT against Endov | inactive: 0.247 |
| GGAUGACACCAAGUUCAAATT against Kcnb1 | inactive: 0.765 |
| GGAAGAAUUAAACGAUUACTT against Crnkl1 | inactive: -1.87 |
| GCCGCUCUACAUAGAAGUUTT against Uxs1 | inactive: 1.89 |
| GGUCUUUGAGUUAAACCAUTT against Cdc7 | inactive: -0.0476 |
| GCCGUGAUGUUGUCACUGATT against Ppp2r5d | inactive: 0.642 |
| CCAUCGUUGUUUCUUACACTT against Olfr922 | inactive: 0.903 |
| GGCUAAGAUAAGAAAUGCUTT against Mllt11 | inactive: -1.38 |
| GCAACCUUGACGUAAAUGUTT against Bsg | inactive: -0.0185 |
| GGGAGCUCCAUUUAAAUUATT against Cnot6 | inactive: -0.516 |

3 entries from above, set out differently.
Sequence,z-score
GGAGCUCAUAUACACCUGCTT against Tdp1,inactive: 0.524
CGGCUUGCUACUUUGGAACTT against Gda,active: 2.55
CACGGUACAGUACGAUUGATT against Rcan2,inactive: 0.143

(continued)

| Sequence | z-score |
| --- | --- |
| CCUCAAUGACCUUAAAGAATT against Sh3glb1 | inactive: -0.939 |
| CACCCUUCUCUGAUUGUCUTT against Lce3b | inactive: 1.62 |
| GCAGCAGGAAGGAUCAUUCTT against Ly6h | inactive: -0.0488 |
| GGAUCUCAAAGAUACAGGATT against Mcpt1 | inactive: 0.375 |
| CCUCUUUCGACAAGAGCUCTT against Atp1a3 | inactive: 0.904 |
| CCAAUGUGGUCAAGGUAAUTT against AI987944 | inactive: 0.696 |
| GGUGGGAUGAUCAUAAGUUTT against Ppnr | inactive: -0.0428 |
| GGAAGCUCUUAAAAGGUUGTT against Hdhd2 | inactive: 0.226 |
| CCUGUAUCCGUGACUUUUGTT against Skor1 | inactive: -0.358 |
| CGACAUCAGUUAAAAACGATT against Aebp2 | inactive: -0.0636 |
| GCACAUAUAAAGUUGGAAATT against Ehbp1 | inactive: 1.06 |
| GGCAAUCGCUUUGAGCCAUTT against Hnrnpm | inactive: -1.09 |
| CGGACUAAGUUUCAAAUCGTT against Pcdha2 | inactive: 0.28 |
| GGAACUGUGUGACUACUUUTT against Necab2 | inactive: 0.18 |
| CCGCGUGUUCCUUCUGAUUTT against S1pr3 | inactive: 1.43 |
| GAUCCGUAUUACCUAUUGUTT against Bex1 | inactive: 0.603 |
| GGAGAAACAGAAGUAUUGATT against Nsa2 | inactive: -0.559 |
| CGAUGUGAUGAUUUAGAAGTT against Itgb1 | inactive: -0.631 |
| GGAACCUAUGGAAGGCGUATT against Ino80b | active: 2.64 |
| GGACUAAGUGGACGGUUUATT against Tmx1 | inactive: -0.485 |
| GGAUUGUGAUUUUCAUUGATT against Lpar6 | inactive: 0.00533 |
| AGAGGCUGGUAAGAAAAAATT against Olfr130 | inactive: -0.565 |
| GCACUGAGCAAGAAUCCUGTT against Phb2 | inactive: 0.184 |
| CCCAUUAAAUUCGAUAAGATT against C1qtnf9 | inactive: 0.0299 |
| GGGAAGCUAUCUGAAUGCGTT against Otoa | inactive: 1.14 |
| GGGACUUGUUGAGUUUAUATT against Ro60 | inactive: -0.276 |
| GGGCAUCCUAUACAAGAAGTT against Sbf1 | inactive: -0.538 |
